Laboratory results reported in patent US9119874B2, “Cell-penetrating markers of apoptosis” (TRUSTEES OF BOSTON COLLEGE, priority 2012, dated 2015).
“Also recorded” adds a separate entry of the source. At least one structure is not confirmed: it was looked up by name or label, or the drawing left a doubt.

What was measured:
Jurkat cells [1] = experiment: Flow cytometry staining of Jurkat cells with and without camptothecin (CPT) treatment; type: cell-based
Jurkat cells [2] = experiment: Confocal microscopy of stained Jurkat cells with and without CPT treatment; type: cell-based
Source text: FIGS. 5A-5D are confocal microscopy images of F1-EA staining Jurkat cell samples without the washing step. FIGS. 5A and 5C display the FITC channel; FIGS. 5B and 5D display the phase contrast channel.
FIGS. 6A-6D are micrographs depicting representative confocal images.
FIGS. 8A-8D are a series of micrographs depicting confocal microscopy images of Rhodamine B and Rd-EA staining Jurkat cell samples. FIGS. 8A and 8B show Rhodamine B stained cells while FIGS. 8C and 8D show Rd-EA stained cells. FIGS. 8A and 8C are CPT treated cells while
The specificity of F1-EA for apoptotic cells were further validated through a costaining experiment with the R-phycoerythrin labeled annexin V (AV-PE, yellow emission). […] The flow cytometry result was further validated with confocal microscopy analysis.

## O=C1OC2(c3ccc(O)cc3Oc3cc(O)ccc32)c2ccccc21 [fluorescein]
Jurkat cells [1]; Jurkat cells without CPT treatment
  staining of untreated (healthy) cells: higher fluorescence readout than those treated with F1-EA
Jurkat cells [1]; flow cytometry, FITC channel, Jurkat cells with vs without CPT
  differentiation of CPT-treated from untreated cells by staining: the same degree of staining
Jurkat cells [2]; confocal image, Jurkat cells without CPT treatment
  entry into healthy cells: brighter fluorescence inside the cells
Jurkat cells [2]; confocal images, CPT-treated vs untreated Jurkat cells
  selectivity of staining for apoptotic cells: no selectivity; also recorded: permeates through both healthy and apoptotic cell membranes
